According to the supplement of paper PMC4683952:
Structures can show the parent of a compound that is named as a salt. About 50 (4%) of roughly 1,200 compounds showed activity. No stated cut-off is given here; in the data, all actives reach 1.3 or more but so do some inactives. Some of the results follow.

test system: Lgr5 (MarsCy1-Lgr5-EGFP, U2OS); test: cell-surface Lgr5 expression (SCi1 fluorescence, background-subtracted) relative to WT DMSO (fold of DMSO control); higher = more Lgr5 at the plasma membrane, active = hit call of the paper; conditions: U2OS MarsCy1-Lgr5-EGFP stable; treatment time: overnight; 16 µM; library: Johns Hopkins Clinical Compound Library

cell-surface Lgr5 expression, inactive:
Cc1cc(CC(=O)O)n(C)c1C(=O)c1ccc(Cl)cc1 [Zomepirac] 1.08
CC(=O)Nc1ncc([N+](=O)[O-])s1 [Nithiamide (2-Acetamido-5-nitrothiazole)] 1.3
CCC(C(=O)OCCN(CC)CC)c1ccccc1 (stereo not given) [Butetamate (Butethamate)] 1.2
O=P([O-])(O)O.[K+] [Potassium phosphate monobasic] 1.24
c1ccc(OCc2ccc(CCCN3CCOCC3)cc2)cc1 [Fomocaine] 1.23
CC(=O)OC1CC2CCC1(C)C2(C)C (stereo not drawn) [Bornyl acetate, (-)-] 1.14
O=C(O)C1=NN(c2ccc(S(=O)(=O)O)cc2)C(=O)C1N=Nc1ccc(S(=O)(=O)O)cc1 (stereo not given) [Tartrazine] 1.02
C=C1/C(=C\C=C2/CCC[C@]3(C)[C@@H]([C@H](C)/C=C/[C@@H](O)C4CC4)CC[C@@H]23)C[C@@H](O)C[C@@H]1O [Calcipotriene] 0.796
Cc1ccc(Cl)c(Nc2ccccc2C(=O)O)c1Cl [Meclofenamic acid sodium salt] 1.02
CN(C)CCOc1ccc(/C(=C(/CCCl)c2ccccc2)c2ccccc2)cc1 [Toremifene] 0.996
CCN1CCN(C(=O)N[C@@H](C(=O)N[C@@H]2C(=O)N3C(C(=O)O)=C(CSc4nnnn4C)CS[C@H]23)c2ccc(O)cc2)C(=O)C1=O [Cefoperazone sodium salt] 0.882
CC(C(=O)O)c1ccc(N2Cc3ccccc3C2=O)cc1 (stereo not given) [Indoprofen] 1.24
CC1=Nc2ccc(Cl)cc2S(=O)(=O)N1 [Diazoxide] 0.976
Cc1cc(/C=C/c2ccc3cc(N(C)C)ccc3[n+]2C)c(C)n1-c1ccccc1 [Pyrvinium pamoate] 1.09
O=S1(=O)OC(c2ccc(O)cc2)(c2ccc(O)cc2)c2ccccc21 [Phenolsulfonphthalein (Phenol red free acid)] 1.06
CCCCNc1ccc(C(=O)OCCOCCOCCOCCOCCOCCOCCOCCOCCOC)cc1 [Benzonatate] 1.08
O=C([O-])C(=O)[O-].O=C([O-])C(=O)[O-].O=C([O-])C(=O)[O-].[Ce+3].[Ce+3] [Cerium oxalate] 1.08
CCCc1nc(C)c2c(=O)nc(-c3cc(S(=O)(=O)N4CCN(CC)CC4)ccc3OCC)[nH]n12 [Vardenafil] 1.08
Cc1cnc(NC(=O)C2=C(O)c3ccccc3S(=O)(=O)N2C)s1 [Meloxicam] 0.887
CC1CC(OC(=O)C(O)c2ccccc2)CC(C)(C)N1C (stereo not given) [Eucatropine] 1.19
CCN(CC)c1ccc(C(=C2C=CC(=[N+](CC)CC)C=C2)c2ccccc2)cc1.CN(C)c1ccc(C(=C2C=CC(=[N+](C)C)C=C2)c2ccc(N(C)C)cc2)cc1.Nc1ccc2cc3ccc(N)cc3nc2c1 0.155
COc1cc(NS(C)(=O)=O)ccc1Nc1c2ccccc2nc2ccccc12 [Amsacrine] 0.994
CCN1CCN(c2cc3c(cc2F)c(=O)c(C(=O)O)cn3C2CC2)CC1 [Enrofloxacin] 1.29
NC(=O)c1ccccc1O [Salicylamide] 1.2
N.N.O=C(O)O [Ammonium carbonate] 0.969
NC(=O)N[C@@H](CCC(=O)O)C(=O)O [Carglumic acid (N-Carbamyl-L-Glutamic Acid)] 1.08
COCCCC/C(=N\OCCN)c1ccc(C(F)(F)F)cc1 [Fluvoxamine maleate] 0.523
C[C@H](N[C@@H](CCc1ccccc1)C(=O)O)C(=O)N1CCC[C@H]1C(=O)O [Enalaprilat] 1.08
CN(C)[C@@H]1C(O)=C(C(N)=O)C(=O)[C@@]2(O)C(O)=C3C(=O)c4c(O)cccc4[C@@](C)(O)[C@H]3C[C@@H]12 [Tetracycline] 0.625
Cc1ccc(N(CC2=NCCN2)c2cccc(O)c2)cc1 [Phentolamine methane-sulfonate] 0.929
Cc1c(Cl)cccc1Nc1ccccc1C(=O)O [Tolfenamic acid] 1.1
CCCSc1ccc2[nH]c(NC(=O)OC)nc2c1 [Albendazole] 0.987
CO[C@H]1/C=C/O[C@@]2(C)Oc3c(C)c(O)c4c(O)c(c(/C=N/N5CCN(C)CC5)c(O)c4c3C2=O)NC(=O)/C(C)=C\C=C\[C@H](C)[C@H](O)[C@@H](C)[C@@H](O)[C@@H](C)[C@H](OC(C)=O)[C@@H]1C [Rifampicin (Rifampin)] 1.06
O=C[O-].[Na+] [Sodium formate] 0.903
CC(C(=O)O)c1ccc(CC2CCCC2=O)cc1 (stereo not given) [Loxoprofen] 0.974
CC[C@H]1OC(=O)[C@H](C)[C@@H](O[C@H]2C[C@@](C)(OC)[C@@H](O)[C@H](C)O2)[C@H](C)[C@@H](O[C@@H]2O[C@H](C)C[C@H](N(C)C)[C@H]2O)[C@](C)(O)C[C@@H](C)C(=O)[C@H](C)[C@@H](O)[C@]1(C)O [Erythromycin stearate] 0.91
CC(=O)OCC(=O)[C@H]1CC[C@H]2[C@@H]3CC=C4C[C@@H](O)CC[C@]4(C)[C@H]3CC[C@]12C [21-Acetoxypregnenolone] 1.06
CC(C)[C@@H](C)/C=C/[C@@H](C)[C@H]1CC[C@H]2C3=CC=C4C[C@@H](O)CC[C@]4(C)[C@H]3CC[C@]12C [Ergosterol] 1.02
O=C1c2ccccc2C(=O)C1c1ccccc1 [Phenindione (2-Phenyl-1,3-indandione)] 0.953

Sorted by molar mass (largest number first): 3 of the compounds above.
cell-surface Lgr5 expression, inactive:
O=C(O)C1=NN(c2ccc(S(=O)(=O)O)cc2)C(=O)C1N=Nc1ccc(S(=O)(=O)O)cc1 (stereo not given) [Tartrazine] 1.02
CCCSc1ccc2[nH]c(NC(=O)OC)nc2c1 [Albendazole] 0.987
CC(=O)Nc1ncc([N+](=O)[O-])s1 [Nithiamide (2-Acetamido-5-nitrothiazole)] 1.3

Next part:

cell-surface Lgr5 expression, active:
C[C@H]1C[C@H]2[C@@H]3CCC4=CC(=O)C=C[C@]4(C)[C@@]3(F)[C@@H](O)C[C@]2(C)[C@@]1(O)C(=O)CO 1.45
